Some results were stated once for a whole list of compounds, not compound by compound.
biological target: T1, LCA1 (YOR175c) (Saccharomyces cerevisiae, UniProt Q08548); test: In vitro assay of LPCAT activity: substrate specificity and kinetics of LCA1 (YOR175c); assay type: biochemical; settings: [^14C] palmitoyl-CoA as acyl donor, 50 μM lysophospholipid, microsomes of lca1Δ expressing YOR175c
T1 construct: Saccharomyces cerevisiae YOR175c ORF was PCR-amplified; made in house; host or cells: S. cerevisiae YOR175c deletion strain Y02431 (lca1Δ), pYES2.1, galactose induction; microsomal fraction
T1 sequence (Q08548 1-619): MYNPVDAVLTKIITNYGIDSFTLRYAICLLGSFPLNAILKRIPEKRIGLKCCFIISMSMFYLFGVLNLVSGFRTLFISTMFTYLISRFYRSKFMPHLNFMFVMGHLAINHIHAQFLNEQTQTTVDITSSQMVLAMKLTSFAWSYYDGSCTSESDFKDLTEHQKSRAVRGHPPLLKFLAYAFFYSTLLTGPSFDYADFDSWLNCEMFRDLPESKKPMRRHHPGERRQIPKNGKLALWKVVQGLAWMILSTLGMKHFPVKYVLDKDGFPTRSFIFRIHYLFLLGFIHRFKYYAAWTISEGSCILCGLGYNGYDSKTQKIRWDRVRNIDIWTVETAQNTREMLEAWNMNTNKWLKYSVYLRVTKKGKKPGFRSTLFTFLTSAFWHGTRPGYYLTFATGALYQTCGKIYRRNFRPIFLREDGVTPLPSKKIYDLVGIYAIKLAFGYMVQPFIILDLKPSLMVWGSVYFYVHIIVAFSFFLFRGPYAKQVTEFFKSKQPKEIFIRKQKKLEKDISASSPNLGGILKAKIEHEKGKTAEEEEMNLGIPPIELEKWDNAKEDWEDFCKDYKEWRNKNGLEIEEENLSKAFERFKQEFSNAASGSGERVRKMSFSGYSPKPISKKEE
Method: FIG. 11 is a graph showing the substrate specificity of LCA1. The assays were performed with 3 μg microsomal protein from lca1Δ harboring an empty vector (V0) and lca1Δ expressing LCA1. The reaction contained 112.5 μm [^14C] palmitoyl-CoA (5.5 nCi/nmol) and 50 μM lysophospholipid substrate (LPA, LPC, LPE, LPG, LPI, and LPS). Reaction was allowed for two minutes with 100 rpm shaking. The results are presented as a mean of three assays.
Microsomal preparation: Yeast strains were first grown in 15 ml of SC-Leu-His-Ura medium containing 2% glucose. Protein expression induction was carried out as described in Invitrogen manufacturer manual for yeast expression vector pYES2.1. After 24 hours of growth in SC+2% galactose+1% raffinose induction conditions, the cells were washed, first with distilled water and then with wall-breaking buffer (50 mM Tris-HCl, 1 mM EDTA, 0.6 M sorbitol, pH 7.4, 1 mM DTT). After centrifugation at 4,000 rpm (Eppendorf Centrifuge 5145C), the cells were resuspended in 1 ml wall-breaking buffer with 10 μl yeast protease cocktail (Sigma), and shaken vigorously in the presence of acid-washed glass beads (diameter 0.5 mm). The resultant homogenate was centrifuged at 12,000 rpm for ten minutes at 4° C. The decanted supernatant was further centrifuged at 100,000×g for 90-120 minutes at 4° C. The supernatant was discarded, and the pellet was suspended in homogenization buffer containing 20% glycerol and frozen at −80° C. until use. Protein concentration was measured using Bio-Rad Protein Assay Kit for final enzyme activity calculation.
In Vitro Assay of LPCAT activity: LPCAT substrate specificity was determined by measuring incorporation of [^14C] lysophosphatidylcholine or [^14C] palmitoyl-CoA into phosphatidylcholine. All assays were performed at least twice. […] Spots corresponding to different phospholipid species products were scraped off and ^14C incorporation were scintillation counted. […]

Rate of acylation as % of the activity registered for LPC, less than 1%:
lysophosphatidyl serine [LPS]
lysophosphatidylinositol [LPI]
lysophosphatidic acid [LPA]
